Experimental findings from PMC4912626 are described below.

Sequences of proteins named here, by UniProt entry; tags and fusion partners are left off. A change or cut given only in a name is not applied to a line headed by its entry.
UniProt P01106: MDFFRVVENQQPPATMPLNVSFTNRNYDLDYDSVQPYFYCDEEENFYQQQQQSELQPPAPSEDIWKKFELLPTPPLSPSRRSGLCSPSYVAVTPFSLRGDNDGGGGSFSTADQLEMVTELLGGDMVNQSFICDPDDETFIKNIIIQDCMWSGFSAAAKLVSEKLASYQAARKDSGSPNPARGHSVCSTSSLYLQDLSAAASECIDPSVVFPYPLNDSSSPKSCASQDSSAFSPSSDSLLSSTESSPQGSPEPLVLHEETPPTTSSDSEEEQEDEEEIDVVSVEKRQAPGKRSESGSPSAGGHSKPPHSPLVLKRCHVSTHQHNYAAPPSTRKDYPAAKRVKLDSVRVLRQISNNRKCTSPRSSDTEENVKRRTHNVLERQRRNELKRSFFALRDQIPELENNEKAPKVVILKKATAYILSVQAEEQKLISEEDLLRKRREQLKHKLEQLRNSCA
UniProt Q6ZN18: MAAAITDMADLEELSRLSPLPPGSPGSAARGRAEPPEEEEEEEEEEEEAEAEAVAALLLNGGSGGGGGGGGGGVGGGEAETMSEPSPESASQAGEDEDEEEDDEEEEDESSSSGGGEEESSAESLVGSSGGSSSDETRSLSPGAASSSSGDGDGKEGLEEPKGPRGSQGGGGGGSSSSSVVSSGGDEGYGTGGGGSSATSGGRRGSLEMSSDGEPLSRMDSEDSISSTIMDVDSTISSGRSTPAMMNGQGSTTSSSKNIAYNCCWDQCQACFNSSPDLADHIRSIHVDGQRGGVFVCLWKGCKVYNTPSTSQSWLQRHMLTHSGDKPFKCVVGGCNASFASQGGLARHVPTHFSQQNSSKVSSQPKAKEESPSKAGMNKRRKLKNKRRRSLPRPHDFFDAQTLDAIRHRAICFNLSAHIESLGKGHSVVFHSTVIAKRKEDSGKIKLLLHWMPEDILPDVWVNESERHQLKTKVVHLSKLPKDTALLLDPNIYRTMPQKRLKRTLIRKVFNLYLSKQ

No constants are given. Whether binding was seen depends on the method and setting. Binding seen in cells or lysates may run through a third protein. Binding calls can cover weak binding; strength is not graded here.

The target in the experiment is YFP-MYCΔMBII (UniProt P01106). In words: FRET or BRET; acceptor photobleaching FRET (apFRET) in fixed NIH3T3 cells co-expressing CFP- and YFP-tagged proteins, MAX co-expressed (MYC:MAX 4:1). (In general: Bioluminescence resonance energy transfer reports proximity on the nanometre scale.)

Consider AEBP2-CFP (from UniProt Q6ZN18 1-517), for which the binding entry is “binds”.
